Data taken from PubChem BioAssay AID1159506, deposited by NCATS (2015).

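Genome-wide siRNA knockdown in TC32 Ewing sarcoma cells, comparing luciferase light from an NR0B1-promoter reporter with a CMV-promoter reporter 48 hours after transfection. Each siRNA was applied at 20 nM. A z-score of the log NR0B1-over-CMV signal, less the median of siRNAs with the same seed; more negative means a stronger specific loss of the NR0B1 reporter.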

The strongest results of the screen are mostly left out here. Sequences are the guide (antisense) strand, without overhang.

- UUUGUGAAGACAGCUGCGG against ALDH2 | seed-corrected z-score 0.2436
- UAUCCUUCAUCAGAUAUAC against DDX10 | seed-corrected z-score 0.7604
- UUAUUUCGAUGGUUAGAUG against CEP85L | seed-corrected z-score 1.5
- AUCCGUAAAACUUCGCGGG against HOXD8 | seed-corrected z-score 0.1962
- UCUUCAAUCUGGUCGGCAG against MYL4 | seed-corrected z-score 0.2386
- UGAAUUCCUAUAAGGCCUG against MCCD1 | seed-corrected z-score -0.8187
- UCAGUUUGAUGGUUACAUG against EPM2A | seed-corrected z-score 0.2238
- AGAUGGACGGUCUUGUUCG against SIGLEC9 | seed-corrected z-score -0.08484
- UGGUUUAGCAUGAGGAUUG against SGK1 | seed-corrected z-score -1.549
- UCCUGUAUGUUGCUACUCC against TMEM5 | seed-corrected z-score 0.07481
- AAAGUUGUGAGUCUCUGCU against PFAS | seed-corrected z-score -1.957
- UGAUGUUGAAUCGCUGUUC against NCAPD3 | seed-corrected z-score 0.2324
- UGAAACACCACCACUUUCC against TMEM59L | seed-corrected z-score 1.431
- UCUGUUCCCGGAGAUGGUG against FUT1 | seed-corrected z-score 0.7038
- UUCAGGGCAUCCAGUGUCU against DAPL1 | seed-corrected z-score -0.7891
- UAUGGGCUACAGGCAAAAG against MOGS | seed-corrected z-score -0.06074
- AUAGAACCCAAAGUGUUGC against TBC1D32 | seed-corrected z-score -0.821
- UGACUCUUUAGAUAGAGAG against ACTL10 | seed-corrected z-score 0.08678
- UUUAUAACAGUGUCUGUUG against SMPDL3A | seed-corrected z-score 0.2554
- UUACAAGCAAGGGCGAAGC against RFC2 | seed-corrected z-score 0.762
- AUAUUCUCAACUGCAGUCC against DNAH12 | seed-corrected z-score -1.263
- UAAUCGUUCUUGCUCAUGG against ALPK1 | seed-corrected z-score 0.3574
- UAAGGGAUCUCGAACUUGA against AP1M1 | seed-corrected z-score 0.03948
- UGACGAAUUUGAUUGAUCG against EIF4G2 | seed-corrected z-score 0.01239
- UUUCGUCUCUGGAUGAUGG against ANGPTL7 | seed-corrected z-score 0.8099
- UCAAUCUCACUUUCUUUAC against C1orf220 | seed-corrected z-score 0.3186
- UUGCAGACAACAAAGGUGG against TCEA2 | seed-corrected z-score -0.02978
- UAGAUUCAUCCAUCUCCGG against ICAM5 | seed-corrected z-score 1.598